For one substance, binding results are on record in paper PMC10865702.

Chains of the proteins cited; added tags and fusions are not shown. Lines headed by an entry give the natural chain unless they say otherwise; changes in a name come on top.
UniProt P52565: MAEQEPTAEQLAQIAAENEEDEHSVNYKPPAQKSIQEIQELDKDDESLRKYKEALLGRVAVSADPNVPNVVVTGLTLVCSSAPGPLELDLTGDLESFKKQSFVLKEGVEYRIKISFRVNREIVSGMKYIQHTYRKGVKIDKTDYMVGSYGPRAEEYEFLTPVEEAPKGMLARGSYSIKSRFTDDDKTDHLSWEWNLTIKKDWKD
UniProt P53350: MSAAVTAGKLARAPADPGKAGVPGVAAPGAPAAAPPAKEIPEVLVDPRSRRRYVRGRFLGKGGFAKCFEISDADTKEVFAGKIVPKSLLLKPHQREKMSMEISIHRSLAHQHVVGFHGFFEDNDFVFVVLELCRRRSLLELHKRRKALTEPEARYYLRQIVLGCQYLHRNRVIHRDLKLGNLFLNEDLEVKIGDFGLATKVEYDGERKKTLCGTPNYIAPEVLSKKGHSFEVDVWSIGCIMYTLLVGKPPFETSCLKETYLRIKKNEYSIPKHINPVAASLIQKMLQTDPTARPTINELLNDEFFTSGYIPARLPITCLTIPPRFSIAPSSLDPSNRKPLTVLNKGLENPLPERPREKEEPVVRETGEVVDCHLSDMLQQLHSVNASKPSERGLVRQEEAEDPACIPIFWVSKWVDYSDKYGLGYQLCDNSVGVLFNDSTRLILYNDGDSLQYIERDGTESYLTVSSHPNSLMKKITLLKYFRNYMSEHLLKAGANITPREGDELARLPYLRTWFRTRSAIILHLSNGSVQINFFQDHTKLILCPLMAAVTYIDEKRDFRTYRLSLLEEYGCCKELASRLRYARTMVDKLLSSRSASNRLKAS

These are yes or no findings as the source states them, for the method shown. Binding seen in cells or lysates may run through a third protein. Binding calls can cover weak binding; strength is not graded here.

The test concerns the target GST-RhoGDI1 truncation mutant aa 68-201 (human) (UniProt P52565). Nature of the test: pull-down; GST-RhoGDI1 (wt or truncation mutants) or GST on GSH-beads, washed, incubated with His-PLK1 expression lysate (E. coli) at 4 °C overnight; immunoblot with PLK1 and GST antibodies; only the target purified. In general terms: Immunoblotting shows a protein as a band on a membrane.

“His-fused PLK1 (from UniProt P53350 1-603) (enzyme)”: the binding result was “binds”.
